# Reference: the supplement of paper PMC9135407
# Where “and” joins values, the source holds several entries; their conditions need not be identical. Equal entries are not always repeated. Structures can show the parent of a compound that is named as a salt. ± gives the standard deviation of the averaged measurements. Some of the results follow. Plates or batches differ in their baseline, so values are only roughly comparable.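 Culture-activated primary human stellate myofibroblasts, where regained lipid droplets signal inactivation. Value: share of Hoechst-counted cells above a per-plate Bodipy cutoff, in duplicate wells, with DMSO negative and nortriptyline positive controls on each plate. Hits: a control-normalized score above the plate's top-tenth-percentile nortriptyline wells, or one of a plate's three best wells. Final well concentrations are not given.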
# Test system: primary human hepatic stellate cells (donor 1)
# Test: percent Bodipy-positive cells; higher = more lipid droplet accumulation
# Settings: 48 h
# [1] = library stock concentration: 10 mM
# [2] = library stock concentration: 1 mM
# [3] = library stock concentration: 3.33 mM
# [4] = library stock concentration: 80 uM
# [5] = library stock concentration: 400 uM
# [6] = library stock concentration: 2 mM
structure (smiles),measurement,setting,value
CN(C)CCCN1c2ccccc2Sc2ccc(C(F)(F)F)cc21 [Triflupromazine hydrochloride],percent Bodipy-positive cells,,69.4 ± 7.9%
same,percent Bodipy-positive cells,library stock concentration: 5.1 mM,91.273 ± 0.044%
same,percent Bodipy-positive cells,[1],96% and 78.6%
COc1ccc([C@@H]2CC(=O)c3c(O)cc(O)cc3O2)cc1O [Hesperetin],percent Bodipy-positive cells,,28 ± 3.5%
same,percent Bodipy-positive cells,[2],11.16 ± 0.032%
same,percent Bodipy-positive cells,[3],8.31 ± 0.82%
same,percent Bodipy-positive cells,[1],18 ± 0.34%
CCCCOCCOCCOCc1cc2c(cc1CCC)OCO2,percent Bodipy-positive cells,[1],50.3 ± 5.6%
"O=c1cc(-c2ccccc2)oc2c(O)c(O)ccc12 [7,8-Dihydroxyflavone hydrate]",percent Bodipy-positive cells,[1],28.7 ± 7.5%
"O=c1cc(-c2ccccc2)oc2c(O)c(O)ccc12 [7,8-dihydroxyflavone]",percent Bodipy-positive cells,[1],40.7 ± 5.1%
CCN(CC)CCOC(=O)C1(C2CCCCC2)CCCCC1 [Dicyclomine hydrochloride],percent Bodipy-positive cells,,69.2 ± 6.1%
same,percent Bodipy-positive cells,library stock concentration: 5.8 mM,26.7 ± 14%
CCN(CC)CCOC(=O)C1(C2CCCCC2)CCCCC1 [Bentyl],percent Bodipy-positive cells,[1],94.5 ± 2.6%
CCCc1cc(C)[nH]c(=O)c1CNC(=O)c1cc(-c2ccc(N3CCN(C(C)C)CC3)nc2)cc2c1cnn2C(C)C,percent Bodipy-positive cells,[3],83 ± 4.5%
same,percent Bodipy-positive cells,[1],96.2 ± 0.73%
CC1(C)OC(=O)C(OCC2CC2)=C1c1ccc(S(C)(=O)=O)cc1,percent Bodipy-positive cells,[1],20.4 ± 7.4%
CC(N/C(=N\C#N)Nc1ccncc1)C(C)(C)C (stereo unspecified) [Pinacidil],percent Bodipy-positive cells,,19.5 ± 3.5%
same,percent Bodipy-positive cells,library stock concentration: 20.4 mM,22.7 ± 0.68%
CC(N/C(=N\C#N)Nc1ccncc1)C(C)(C)C (stereo unspecified) [Pinacidil monohydrate],percent Bodipy-positive cells,[1],11.6 ± 0.46%
CCCCCCCCCCCCCCCC(=O)OCC(O)C1OC(=O)C(O)=C1O [L-Ascorbyl 6-palmitate],percent Bodipy-positive cells,[3],9.1 ± 0.4%
same,percent Bodipy-positive cells,[1],33.2 ± 17%
NC(=O)c1ccc(N(C(N)=O)c2c(F)cccc2F)nc1-c1ccc(F)cc1F,percent Bodipy-positive cells,[4],21.9 ± 18%
same,percent Bodipy-positive cells,[5],12.9% and 16.3%
same,percent Bodipy-positive cells,[6],9.93% and 28.4%
same,percent Bodipy-positive cells,[3],12.7 ± 6.8%
same,percent Bodipy-positive cells,[1],12.6% and 13.1% and 25.3%
C[N+]1(C)CCC(OC(=O)C(c2ccccc2)c2ccccc2)CC1 [4-DAMP methiodide],percent Bodipy-positive cells,[1],23.4 ± 9%
C[N+]1(C)CCC(OC(=O)C(c2ccccc2)c2ccccc2)CC1,percent Bodipy-positive cells,[1],11.2 ± 5.9%
Cc1[nH]ccc2c1[nH]c1cc(=O)ccc12 [Harmol hydrochloride monohydrate],percent Bodipy-positive cells,,84.3 ± 14%
"O=Cc1c2[nH]c3ccccc3c2cc2[nH]c3ccccc3c12 [6-Formylindolo [3,2-B] carbazole]",percent Bodipy-positive cells,[2],25.8 ± 16%
CC(=O)Oc1ccccc1C(=O)Nc1ncc([N+](=O)[O-])s1 [Nitazoxanide],percent Bodipy-positive cells,[3],15.7 ± 4.8%
same,percent Bodipy-positive cells,[1],40.8 ± 4.4%
CC(=O)Oc1ccccc1C(=O)Nc1ncc([N+](=O)[O-])s1,percent Bodipy-positive cells,[1],32.2 ± 4.5%
C#CC(N)CCC(=O)O (stereo unspecified) [gamma-Acetylinic GABA],percent Bodipy-positive cells,[1],32.3 ± 2.9%
CCCCC/N=c1\ccn(Cc2ccccc2)c2ccccc12,percent Bodipy-positive cells,[1],43.6 ± 9.8%
CO[C@H]1C[C@H](O[C@H]2[C@H](C)O[C@@H](O[C@@H]3/C(C)=C/C[C@@H]4C[C@@H](C[C@]5(C=C[C@H](C)[C@@H](C6CCCCC6)O5)O4)OC(=O)[C@@H]4C=C(C)[C@@H](O)[C@H]5OC/C(=C\C=C\[C@@H]3C)[C@]54O)C[C@@H]2OC)O[C@@H](C)[C@@H]1O,percent Bodipy-positive cells,[1],97.36 ± 0.76%
COc1c(C)c(C(=O)c2ccc(N)c(C(=O)O)c2)n2ccccc12,percent Bodipy-positive cells,[3],15.2 ± 2.6%
same,percent Bodipy-positive cells,[1],18.7 ± 0.76%
CCCCCCCC/C=C\CCCCCC(=O)O [cis-7-Hexadecenoic Acid],percent Bodipy-positive cells,[2],12.1 ± 4.1%
CCCCCC(=O)/C=C/[C@H]1[C@H](O)CC(=O)[C@@H]1C/C=C\CCCC(=O)O [15-keto Prostaglandin E2],percent Bodipy-positive cells,[2],17.9 ± 6.5%
O=C(CCCN1CCC(O)(c2ccc(Cl)cc2)CC1)c1ccc(F)cc1 [Haloperidol],percent Bodipy-positive cells,[1],96.47 ± 0.93%
"OCCNCCCOc1cccc(Cl)c1Cl [2,3-DCPE (hydrochloride)]",percent Bodipy-positive cells,[2],12.2 ± 0.25%
O=C1c2c(O)cccc2Cc2cccc(O)c21 [Anthralin],percent Bodipy-positive cells,library stock concentration: 8.8 mM,4.48 ± 0.34%
same,percent Bodipy-positive cells,[1],27.6 ± 0.34%
COc1nccc(-c2c(-c3ccc(F)cc3)ncn2C2CCC(O)CC2)n1 (stereo unspecified),percent Bodipy-positive cells,[4],10.1 ± 0.8%
same,percent Bodipy-positive cells,[5],9.01 ± 0.26%
same,percent Bodipy-positive cells,[6],9.81 ± 0.71%
same,percent Bodipy-positive cells,[3],7.33 ± 0.27%
same,percent Bodipy-positive cells,[1],8.08% and 7.82%
CN1c2cc3c(cc2N=C(c2ccc(C(=O)O)cc2)c2ccccc21)C(C)(C)CCC3(C)C,percent Bodipy-positive cells,[1],12.8 ± 0.87%
"CCC=CCC=CCC=CCCCCCCCCCC(=O)O [11(Z),14(Z),17(Z)-Eicosatrienoic Acid]",percent Bodipy-positive cells,[2],9.03 ± 3.7%
CCc1cc2c(cc1CC)CC(NC[C@H](O)c1ccc(O)c3[nH]c(=O)ccc13)C2.O=C(O)C=CC(=O)O [Indacaterol Maleate],percent Bodipy-positive cells,[1],100%
O/N=C/c1ccc(-c2ccc(O)c(F)c2)c(Cl)c1O,percent Bodipy-positive cells,[1],6.35 ± 0.3%
CN(C)CCCn1cc(C2=C(c3c[nH]c4ccccc34)C(=O)NC2=O)c2ccccc21,percent Bodipy-positive cells,[1],70 ± 3.9%
CC[N+](C)(CC)CCOC(=O)C(O)(c1ccccc1)C1CCCCC1 (stereo unspecified),percent Bodipy-positive cells,[1],16.7 ± 11%
COc1ccc2c(c1)CCC1C2CCC2(C)C(NCCCCCCN3C(=O)C=CC3=O)CCC12 (stereo unspecified),percent Bodipy-positive cells,[2],8.43 ± 3.4%
same,percent Bodipy-positive cells,[1],65.8 ± 10%
COc1cc2c(Nc3ccc(NC(=O)c4ccccc4)cc3)ncnc2cc1OCCCN1CCOCC1,percent Bodipy-positive cells,[1],97.5 ± 1.7%
CC(C)C[C@H](NP(=O)(O)O[C@@H]1O[C@@H](C)[C@H](O)[C@@H](O)[C@H]1O)C(=O)N[C@@H](Cc1c[nH]c2ccccc12)C(=O)O [Phosphoramidon Disodium Salt],percent Bodipy-positive cells,[3],22.1 ± 2.5%
same,percent Bodipy-positive cells,[1],31.5 ± 8.1%
COc1cc(C(=O)OCCCN2CCCN(CCCOC(=O)c3cc(OC)c(OC)c(OC)c3)CC2)cc(OC)c1OC [Dilazep dihydrochloride],percent Bodipy-positive cells,,62.1 ± 9.8%

# Part of the list above in a different format.
structure (smiles)	measurement	setting	value
CN(C)CCCN1c2ccccc2Sc2ccc(C(F)(F)F)cc21 [Triflupromazine hydrochloride]	percent Bodipy-positive cells		69.4 ± 7.9%
Cc1[nH]ccc2c1[nH]c1cc(=O)ccc12 [Harmol hydrochloride monohydrate]	percent Bodipy-positive cells		84.3 ± 14%
COc1nccc(-c2c(-c3ccc(F)cc3)ncn2C2CCC(O)CC2)n1 (stereo unspecified)	percent Bodipy-positive cells	[3]	7.33 ± 0.27%
